{
  "source": "patent US6589937B1",
  "about": "(Kabushiki Kaisha Yakult Honsha, priority 1996, dated 2003)",
  "assay": "general procedure: Boc solid-phase peptide synthesis",
  "settings": "oxidative folding step",
  "note": "[ ]: non-standard residue; d: D form. The star is where a group is joined. X1 = N=C(N)NCCC[C@H](N)C(=O)N[C@@H](Cc1c[nH]cn1)C(=O)N1CCC[C@H]1C(=O)N[C@@H](CS*)C(=O)O; pGlu = O=C1CC[C@@H](C(=O)O)N1",
  "data": [
    {"substance": "[pGlu]NC(X1)PRG-NH2 (SMILES N=C(N)NCCC[C@H](NC(=O)[C@@H]1CCCN1C(=O)[C@H](CSSC[C@H](NC(=O)[C@@H]1CCCN1C(=O)[C@H](Cc1c[nH]cn1)NC(=O)[C@@H](N)CCCNC(=N)N)C(=O)O)NC(=O)[C@H](CC(N)=O)NC(=O)[C@@H]1CCC(=O)N1)C(=O)NCC(N)=O)", "values": [
      {"measurement": "oxidative folding yield", "result": "about 80%"}
    ]}
  ]
}
